PMC6284738
Results are given in words; binding and its absence hold for the method and conditions named. Binding seen in cells or lysates may run through a third protein. Some entries that bind do so weakly or less than the wild type.

Amino acid sequences for entries named in this document (tags omitted).
UniProt Q05397: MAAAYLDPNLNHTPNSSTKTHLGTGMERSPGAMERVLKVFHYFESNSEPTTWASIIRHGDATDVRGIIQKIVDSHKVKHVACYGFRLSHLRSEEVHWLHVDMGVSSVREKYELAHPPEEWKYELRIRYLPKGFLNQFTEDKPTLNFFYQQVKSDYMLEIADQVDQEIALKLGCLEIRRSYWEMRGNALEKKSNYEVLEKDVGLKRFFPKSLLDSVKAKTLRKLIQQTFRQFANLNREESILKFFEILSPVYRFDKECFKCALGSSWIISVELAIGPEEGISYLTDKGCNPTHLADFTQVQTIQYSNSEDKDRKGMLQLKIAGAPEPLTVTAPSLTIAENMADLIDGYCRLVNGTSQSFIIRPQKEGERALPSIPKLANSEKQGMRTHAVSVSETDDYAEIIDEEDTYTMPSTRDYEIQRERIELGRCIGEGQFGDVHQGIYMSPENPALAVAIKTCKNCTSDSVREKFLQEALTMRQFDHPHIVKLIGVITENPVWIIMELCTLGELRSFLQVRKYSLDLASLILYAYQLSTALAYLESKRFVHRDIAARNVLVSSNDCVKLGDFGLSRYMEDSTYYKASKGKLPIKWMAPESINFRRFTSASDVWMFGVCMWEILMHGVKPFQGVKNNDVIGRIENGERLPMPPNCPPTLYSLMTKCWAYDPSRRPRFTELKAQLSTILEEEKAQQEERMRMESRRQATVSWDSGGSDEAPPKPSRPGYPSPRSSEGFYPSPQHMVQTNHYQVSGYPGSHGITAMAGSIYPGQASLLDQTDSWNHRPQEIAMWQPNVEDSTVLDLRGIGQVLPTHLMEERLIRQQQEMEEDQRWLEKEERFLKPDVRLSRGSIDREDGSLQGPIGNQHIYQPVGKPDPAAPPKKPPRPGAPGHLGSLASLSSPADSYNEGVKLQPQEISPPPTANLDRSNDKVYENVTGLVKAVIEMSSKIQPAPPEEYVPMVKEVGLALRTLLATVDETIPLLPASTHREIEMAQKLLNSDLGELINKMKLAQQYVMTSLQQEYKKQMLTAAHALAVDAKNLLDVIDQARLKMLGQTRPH

Columns and labels:
[1] = target: T1, Calretinin (CR), lentivirally overexpressed from pLV-CALB2 (UniProt P22676); assay: co-IP; Cell lysates (SPC111-CR, MSTO-CR, MSTO wt; 150 mM NaCl, 1% Triton X-100, 50 mM Tris HCl pH 8.0, protease and phosphatase inhibitors); CR precipitated with anti-CR antiserum CR 7699/4 and protein A MicroBeads, 4°C; washes with 150 mM NaCl, 1% NP-40, 0.5% sodium deoxycholate, 0.1% SDS, 50 mM Tris HCl pH 8.0; Western blot with anti-FAK; normal rabbit IgG as negative IP control
T1 sequence: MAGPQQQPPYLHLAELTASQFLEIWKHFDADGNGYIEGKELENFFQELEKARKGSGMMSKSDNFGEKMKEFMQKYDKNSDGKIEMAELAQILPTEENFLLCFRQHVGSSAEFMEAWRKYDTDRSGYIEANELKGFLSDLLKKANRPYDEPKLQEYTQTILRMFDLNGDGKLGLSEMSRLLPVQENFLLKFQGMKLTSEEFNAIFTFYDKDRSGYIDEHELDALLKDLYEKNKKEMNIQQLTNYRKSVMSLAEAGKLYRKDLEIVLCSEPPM

[2] = target: T2, Calretinin (CR), endogenous in MSTO-211H wt cells (human (endogenous in MSTO-211H)) (UniProt P22676); assay: as above
T2 sequence: T1 sequence

binding [1]: binds | binding [2]: binds
Substance: Focal adhesion kinase (FAK) (from UniProt Q05397 1-1052)
